In patent US20080319001A1, “Cancer Treatment Using Specific 3,6,9-Substituted Acridines” (priority 2005, published 2008):

Tested on: telomerase (extracts from A2780 human ovarian carcinoma cells)
Assay: Modified telomeric repeat amplification protocol (TRAP) assay, cell-free
Type: biochemical
Settings: Table 3
Method: The ability of compounds to inhibit telomerase in a cell-free assay was assessed with a modified TRAP assay using extracts from exponentially growing A2780 human ovarian carcinoma cells. The TRAP assay was performed in 2 steps: • (a) telomerase-mediated extension of the forward primer (TS: 5′-AATCCGTCGAGCAGAGTT, Oswel Ltd., Southampton, UK) contained in a 40 μL reaction mix comprising TRAP buffer (20 mM Tris-HCl (pH 8.3), 68 mM KCl, 1.5 mM MgCl2, 1 mM EGTA, 0.05% v/v Tween 20), 0.05 μg bovine serum albumin, 50 μM of each deoxynucleotide triphosphate, 0.1 μg TS primer, and 3 μCi of [α-P]dCTP (Amersham plc, UK)Protein (40 ng or 20 ng) was then incubated with the reaction mix and agent (acid addition and quaternary dimethiodide salts) at final concentrations of up to 50 μM for 20 min at 25° C. […] Telomerase-extended PCR products in the presence or absence of compounds were then determined either by electrophoretic separation using 8% w/w acrylamide denaturing gels and analysis by phosphorimaging or autoradiography, or by harvesting on Whatman filters (25 mm glass microfibre) and analysis by liquid scintillation counting.

CN(C)c1ccc(Nc2c3ccc(NC(=O)CCN4CCCC4)cc3nc3cc(NC(=O)CCN4CCCC4)ccc23)cc1 [BSG01]
multiple in brackets beside TRAP EC50 (Cmax over TRAP EC50): 16.5 x

O=C(CCN1CCCC1)Nc1ccc2c(NCc3ccc(F)c(F)c3)c3ccc(NC(=O)CCN4CCCC4)cc3nc2c1 [BSG17, N-(9-(3,4-Difluoro-benzylamino)-6-(3-pyrolidin-1-yl-propionamide)-acridin-3-yl)-3-pyrrolidin-1-yl-propionamide]
multiple in brackets beside TRAP EC50 (Cmax over TRAP EC50): 53 x
